Data as given in the supplement of paper PMC10382679.
Single values of this set are uncertain.

B1: Rpb7; numbered along this chain (parent)
chain: MFFIKDLSLNITLHPSFFGPRMKQYLKTKLLEEVEGSCTGKFGYILCVLDYDNIDIQRGRILPTDGSAEFNVKYRAVVFKPFKGEVVDGTVVSCSQHGFEVQVGPMKVFVTKHLMPQDLTFNAGSNPPSYQSSEDVITIKSRIRVKIEGCISQVSSIHAIGSIKEDYLGAI

Key:
[1] = variants of: B1; assay: log2 fold change of mutant abundance, UV-irradiated vs unirradiated; higher = more UV resistant (enriched after UV); settings: with Saccharomyces cerevisiae rad7Δ rad26Δ; UV dose (J/m2): 10; genetic background: rad7Δ rad26Δ rpb7Δ + plasmid RPB7 library; outgrowth: 10 cell divisions
[2] = variants of: B1; assay: NOISeq theta enrichment statistic, UV-irradiated vs unirradiated (dimensionless); higher = more UV resistant (enriched after UV); settings: with Saccharomyces cerevisiae rad7Δ rad26Δ; UV dose (J/m2): 10; genetic background: rad7Δ rad26Δ rpb7Δ + plasmid RPB7 library; outgrowth: 10 cell divisions

Variant | log2 fold change of mutant abundance [1] | NOISeq theta enrichment statistic [2]
MFFIKDLSLNITLHPSFFGPRMKQYLKTKLLEEVEGSCTGKFGYILVVLDYDNIDIQRGRILPTDGSAEFNVKYRAVVFKPFKGEVVDGTVVSCSQHGFEVQVGPMKVFVTKHLMPQDLTFNAGSNPPSYQSSEDVITIKSRIRVKIEGCISQVSSIHAIGSIKEDYLGAI [C47V] | -0.015 | -0.0175
MFFIKDLSLNITLHPSFFGPRMKQYLKTKLLEEVEGSCTGKFGYILWVLDYDNIDIQRGRILPTDGSAEFNVKYRAVVFKPFKGEVVDGTVVSCSQHGFEVQVGPMKVFVTKHLMPQDLTFNAGSNPPSYQSSEDVITIKSRIRVKIEGCISQVSSIHAIGSIKEDYLGAI [C47W] | 0.263 | 0.33
MFFIKDLSLNITLHPSFFGPRMKQYLKTKLLEEVEGSCTGKFGYILYVLDYDNIDIQRGRILPTDGSAEFNVKYRAVVFKPFKGEVVDGTVVSCSQHGFEVQVGPMKVFVTKHLMPQDLTFNAGSNPPSYQSSEDVITIKSRIRVKIEGCISQVSSIHAIGSIKEDYLGAI [C47Y] | 0.114 | 0.348
MFFIKDLSLNITLHPSFFGPRMKQYLKTKLLEEVEGSCTGKFGYILCALDYDNIDIQRGRILPTDGSAEFNVKYRAVVFKPFKGEVVDGTVVSCSQHGFEVQVGPMKVFVTKHLMPQDLTFNAGSNPPSYQSSEDVITIKSRIRVKIEGCISQVSSIHAIGSIKEDYLGAI [V48A] | -0.0198 | -0.0323
MFFIKDLSLNITLHPSFFGPRMKQYLKTKLLEEVEGSCTGKFGYILCCLDYDNIDIQRGRILPTDGSAEFNVKYRAVVFKPFKGEVVDGTVVSCSQHGFEVQVGPMKVFVTKHLMPQDLTFNAGSNPPSYQSSEDVITIKSRIRVKIEGCISQVSSIHAIGSIKEDYLGAI [V48C] | 0.0251 | 0.0166
MFFIKDLSLNITLHPSFFGPRMKQYLKTKLLEEVEGSCTGKFGYILCDLDYDNIDIQRGRILPTDGSAEFNVKYRAVVFKPFKGEVVDGTVVSCSQHGFEVQVGPMKVFVTKHLMPQDLTFNAGSNPPSYQSSEDVITIKSRIRVKIEGCISQVSSIHAIGSIKEDYLGAI [V48D] | 0.191 | 0.256
MFFIKDLSLNITLHPSFFGPRMKQYLKTKLLEEVEGSCTGKFGYILCFLDYDNIDIQRGRILPTDGSAEFNVKYRAVVFKPFKGEVVDGTVVSCSQHGFEVQVGPMKVFVTKHLMPQDLTFNAGSNPPSYQSSEDVITIKSRIRVKIEGCISQVSSIHAIGSIKEDYLGAI [V48F] | 0.0859 | 0.241
MFFIKDLSLNITLHPSFFGPRMKQYLKTKLLEEVEGSCTGKFGYILCGLDYDNIDIQRGRILPTDGSAEFNVKYRAVVFKPFKGEVVDGTVVSCSQHGFEVQVGPMKVFVTKHLMPQDLTFNAGSNPPSYQSSEDVITIKSRIRVKIEGCISQVSSIHAIGSIKEDYLGAI [V48G] | -0.0629 | -0.0734
MFFIKDLSLNITLHPSFFGPRMKQYLKTKLLEEVEGSCTGKFGYILCILDYDNIDIQRGRILPTDGSAEFNVKYRAVVFKPFKGEVVDGTVVSCSQHGFEVQVGPMKVFVTKHLMPQDLTFNAGSNPPSYQSSEDVITIKSRIRVKIEGCISQVSSIHAIGSIKEDYLGAI [V48I] | 0.146 | 0.437
MFFIKDLSLNITLHPSFFGPRMKQYLKTKLLEEVEGSCTGKFGYILCLLDYDNIDIQRGRILPTDGSAEFNVKYRAVVFKPFKGEVVDGTVVSCSQHGFEVQVGPMKVFVTKHLMPQDLTFNAGSNPPSYQSSEDVITIKSRIRVKIEGCISQVSSIHAIGSIKEDYLGAI [V48L] | 0.00204 | 0.00262
MFFIKDLSLNITLHPSFFGPRMKQYLKTKLLEEVEGSCTGKFGYILCSLDYDNIDIQRGRILPTDGSAEFNVKYRAVVFKPFKGEVVDGTVVSCSQHGFEVQVGPMKVFVTKHLMPQDLTFNAGSNPPSYQSSEDVITIKSRIRVKIEGCISQVSSIHAIGSIKEDYLGAI [V48S] | -0.0139 | -0.0147
MFFIKDLSLNITLHPSFFGPRMKQYLKTKLLEEVEGSCTGKFGYILCVFDYDNIDIQRGRILPTDGSAEFNVKYRAVVFKPFKGEVVDGTVVSCSQHGFEVQVGPMKVFVTKHLMPQDLTFNAGSNPPSYQSSEDVITIKSRIRVKIEGCISQVSSIHAIGSIKEDYLGAI [L49F] | 0.459 | 0.43
MFFIKDLSLNITLHPSFFGPRMKQYLKTKLLEEVEGSCTGKFGYILCVHDYDNIDIQRGRILPTDGSAEFNVKYRAVVFKPFKGEVVDGTVVSCSQHGFEVQVGPMKVFVTKHLMPQDLTFNAGSNPPSYQSSEDVITIKSRIRVKIEGCISQVSSIHAIGSIKEDYLGAI [L49H] | -0.00696 | -0.00395
MFFIKDLSLNITLHPSFFGPRMKQYLKTKLLEEVEGSCTGKFGYILCVIDYDNIDIQRGRILPTDGSAEFNVKYRAVVFKPFKGEVVDGTVVSCSQHGFEVQVGPMKVFVTKHLMPQDLTFNAGSNPPSYQSSEDVITIKSRIRVKIEGCISQVSSIHAIGSIKEDYLGAI [L49I] | 0.101 | 0.389
MFFIKDLSLNITLHPSFFGPRMKQYLKTKLLEEVEGSCTGKFGYILCVMDYDNIDIQRGRILPTDGSAEFNVKYRAVVFKPFKGEVVDGTVVSCSQHGFEVQVGPMKVFVTKHLMPQDLTFNAGSNPPSYQSSEDVITIKSRIRVKIEGCISQVSSIHAIGSIKEDYLGAI [L49M] | 1.35 | 0.574
MFFIKDLSLNITLHPSFFGPRMKQYLKTKLLEEVEGSCTGKFGYILCVPDYDNIDIQRGRILPTDGSAEFNVKYRAVVFKPFKGEVVDGTVVSCSQHGFEVQVGPMKVFVTKHLMPQDLTFNAGSNPPSYQSSEDVITIKSRIRVKIEGCISQVSSIHAIGSIKEDYLGAI [L49P] | 0.218 | 0.395
MFFIKDLSLNITLHPSFFGPRMKQYLKTKLLEEVEGSCTGKFGYILCVQDYDNIDIQRGRILPTDGSAEFNVKYRAVVFKPFKGEVVDGTVVSCSQHGFEVQVGPMKVFVTKHLMPQDLTFNAGSNPPSYQSSEDVITIKSRIRVKIEGCISQVSSIHAIGSIKEDYLGAI [L49Q] | 0.312 | 0.682

Exported comma-delimited: entries from further up
Variant,log2 fold change of mutant abundance [1],NOISeq theta enrichment statistic [2]
MFFIKDLSLNITLHPSFFGPRMKQYLKTKLLEEVEGSCTGKFGYILCCLDYDNIDIQRGRILPTDGSAEFNVKYRAVVFKPFKGEVVDGTVVSCSQHGFEVQVGPMKVFVTKHLMPQDLTFNAGSNPPSYQSSEDVITIKSRIRVKIEGCISQVSSIHAIGSIKEDYLGAI [V48C],0.0251,0.0166
MFFIKDLSLNITLHPSFFGPRMKQYLKTKLLEEVEGSCTGKFGYILCDLDYDNIDIQRGRILPTDGSAEFNVKYRAVVFKPFKGEVVDGTVVSCSQHGFEVQVGPMKVFVTKHLMPQDLTFNAGSNPPSYQSSEDVITIKSRIRVKIEGCISQVSSIHAIGSIKEDYLGAI [V48D],0.191,0.256
